Results on 2 molecules are retold here after paper PMC7806492.

Protein sequences, listed by entry. Tags and fused reporters are not part of them. Residues count along the entry.
UniProt P16070, residues 21-742: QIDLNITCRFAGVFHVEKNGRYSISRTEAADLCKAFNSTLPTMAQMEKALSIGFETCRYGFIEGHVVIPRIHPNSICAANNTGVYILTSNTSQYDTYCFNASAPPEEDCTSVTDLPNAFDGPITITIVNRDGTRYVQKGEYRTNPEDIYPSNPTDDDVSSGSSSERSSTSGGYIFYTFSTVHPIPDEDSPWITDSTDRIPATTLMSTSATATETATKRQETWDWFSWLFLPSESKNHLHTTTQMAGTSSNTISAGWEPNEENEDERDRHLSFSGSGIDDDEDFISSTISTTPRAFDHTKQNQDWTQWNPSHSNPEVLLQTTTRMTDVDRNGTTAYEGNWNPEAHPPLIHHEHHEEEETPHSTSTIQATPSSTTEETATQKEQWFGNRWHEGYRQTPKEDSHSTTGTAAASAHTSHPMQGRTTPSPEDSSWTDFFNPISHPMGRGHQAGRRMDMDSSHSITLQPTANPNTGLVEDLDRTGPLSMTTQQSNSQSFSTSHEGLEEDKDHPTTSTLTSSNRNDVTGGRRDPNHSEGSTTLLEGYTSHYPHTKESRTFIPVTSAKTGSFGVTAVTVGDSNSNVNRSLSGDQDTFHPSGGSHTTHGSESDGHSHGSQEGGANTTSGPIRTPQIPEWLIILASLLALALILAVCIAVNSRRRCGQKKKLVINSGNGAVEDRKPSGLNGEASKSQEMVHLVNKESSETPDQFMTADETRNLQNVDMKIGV

Results are given in words; binding and its absence hold for the method and conditions named. Binding seen in cells or lysates may run through a third protein. Some binding calls cover weakened binding; strength is not graded here. For some assays here: Tags and fused reporters may be left off the sequences shown.

The target of test [1] is T1, MDK-SFB (FLAG-fusion MDK) (human) (UniProt P21741).
T1 sequence: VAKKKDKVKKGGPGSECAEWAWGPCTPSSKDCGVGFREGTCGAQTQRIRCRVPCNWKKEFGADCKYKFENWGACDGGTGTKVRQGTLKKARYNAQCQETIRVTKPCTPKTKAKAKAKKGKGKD
Kind of test: co-IP; whole cell lysates of ESCC cells transfected with MDK-SFB, MMP2-SFB or MMP9-SFB; IP lysis buffer (50 mM Tris, 150 mM NaCl, 0.5% NP-40, 5 mM EDTA); anti-FLAG M2 beads overnight; blots for endogenous SRGN and CD44.

Test [2] deals with T2, serglycin (SRGN), endogenous in ESCC cells (human (endogenous in KYSE150 and KYSE410)) (UniProt P10124).
T2 sequence: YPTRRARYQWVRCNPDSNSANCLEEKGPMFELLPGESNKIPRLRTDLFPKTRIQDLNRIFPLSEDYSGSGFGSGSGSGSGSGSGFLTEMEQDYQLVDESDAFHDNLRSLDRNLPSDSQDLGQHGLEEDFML
Kind of test: proximity ligation; Duolink in situ PLA on KYSE150 and KYSE410 cells; a pair of primary antibodies from different species (mouse anti-SRGN with goat anti-MDK, rabbit anti-MMP2 or rabbit anti-MMP9); probes < 40 nm apart give a spot; negative control with IgG in place of one primary antibody.

With “CD44, endogenous in ESCC cells (from UniProt P16070 21-742) (receptor)”, the binding result in test [1] is “binds”.

B1: midkine (MDK), endogenous in ESCC cells (protein, UniProt P21741 21-143)
chain: VAKKKDKVKKGGPGSECAEWAWGPCTPSSKDCGVGFREGTCGAQTQRIRCRVPCNWKKEFGADCKYKFENWGACDGGTGTKVRQGTLKKARYNAQCQETIRVTKPCTPKTKAKAKAKKGKGKD
Consider B1, for which the binding entry in test [2] is listed as “binds”.
